The values below come from PMC6445127, “WNT5A is transported via lipoprotein particles in the cerebrospinal fluid to regulate hindbrain morphogenesis” (Nature Communications, 2019).

This assay has as its target human LDL lipoprotein fraction (native LDL) (human). Description: molecular sieve assay (150 kDa cut-off filtration) + KBr gradient ultracentrifugation; 100 ng recombinant WNT5A incubated with 50 ug native LDL in 800 µl serum-free DMEM for 4 h at 37 °C, filtered through a 150 kDa cut-off concentrator; the >150 kDa fraction separated into VLDL, LDL and HDL on a KBr gradient; western blot; both purified. In general terms: In western blotting, separated proteins are transferred to a membrane and probed.

No constants are given. Whether binding was seen depends on the method and setting. Binding can be weak; no strength is given.

B1: recombinant WNT5A (ligand, UniProt P22725 62-380, looked up)
chain: IIGAQPLCSQLAGLSQGQKKLCHLYQDHMQYIGEGAKTGIKECQYQFRHRRWNCSTVDNTSVFGRVMQIGSRETAFTYAVSAAGVVNAMSRACREGELSTCGCSRAARPKDLPRDWLWGGCGDNIDYGYRFAKEFVDARERERIHAKGSYESARILMNLHNNEAGRRTVYNLADVACKCHGVSGSCSLKTCWLQLADFRKVGDALKEKYDSAAAMRLNSRGKLVQVNSRFNSPTTQDLVYIDPSPDYCVRNESTGSLGTQGRLCNKTSEGMDGCELMCCGRGYDQFKTVQTERCHCKFHWCCYVKCKKCTEIVDQFVCK
notes: recombinant WNT5A, R&D Systems; 'P22725' is printed where a catalogue number would stand; elsewhere the catalogue number 645-WN-010 is printed; WNT5A'; also called rcWNT5A; rcWnt5a; source: bought: R&D Systems
In the case of B1, the binding entry is “binds”.
